Measurements taken from patent publication US9808003B2, “Herbicidally active 2-(substituted-phenyl)-cyclopentane-1,3-dione compounds and derivatives thereof” (Syngenta Limited, priority 2013, dated 2017).
At least one read-out could not be matched to a standard name with certainty.

How the values were obtained:
Assay in all cases: Test 1A glasshouse assay, post-emergence herbicidal activity
Assay type in all cases: in vivo
Settings in all cases: application rate 250 g/ha, 13 days after application, visual (100%=total damage; 0%=no damage)
[1] = tested on: Avena fatua (AVEFA)
Description: (§1) Seeds of a variety of test species were sown in standard soil in pots. After cultivation for one day (pre-emergence) or after 8 days cultivation (post-emergence) under controlled conditions in a glasshouse (at 24/16° C., day/night; 14 hours light; 65% humidity), the plants were sprayed with an aqueous spray solution derived from the formulation of the technical active ingredient in acetone/water (50:50) solution containing 0.5% Tween 20 (polyoxyethelyene sorbitan monolaurate, CAS RN 9005-64-5). The test plants were then grown under controlled conditions in a glasshouse (at 24/16° C., day/night; 14 hours light; 65% humidity) and watered twice daily. 13 days after application of the test herbicide, for pre- and post-emergence, the test was evaluated visually for percentage phytotoxicity to the plant (where 100%=total damage to plant; 0%=no damage to plant).
(§2) Lolium perenne (LOLPE), Alopecurus myosuroides (ALOMY), Echinochloa crus-galli (ECHCG), and Avena fatua (AVEFA); these are all grassy monocotyledonous weeds.

[2] = tested on: Lolium perenne (LOLPE)
Description: as §1, §2

[3] = tested on: Alopecurus myosuroides (ALOMY)
Description: as §1, §2

SMILES	Post-emergence Herbicidal Activity (% Phytotoxicity) AVEFA [1] [%]	Post-emergence Herbicidal Activity (% Phytotoxicity) LOLPE [2] [%]	Post-emergence Herbicidal Activity (% Phytotoxicity) ALOMY [3] [%]
Cc1cc(-n2cc(Cl)nn2)cc(C)c1C1C(=O)CC(CCNC(=O)c2ccccn2)C1=O (centres unmarked) [Compound A170, N-[2-[3-[4-(4-chlorotriazol-1-yl)-2,6-dimethyl-phenyl]-2,4-dioxo-cyclopentyl]ethyl]pyridine-2-carboxamide]	90	80	–
COCc1nc(C2CC2)c(C(=O)NCCC2CC(=O)C(c3c(C)cc(C)cc3C)C2=O)s1 (centres unmarked) [Compound A174]	90	90	–
Cc1cc(Cl)c(C2C(=O)CC(CCNC(=O)c3ccccn3)C2=O)c(Cl)c1 (centres unmarked) [Compound A105]	–	–	60
